Measurements taken from paper doi:10.1101/2023.01.18.524620.
Results are given in words; binding and its absence hold for the method and conditions named. For part of these data: Binding seen in cells or lysates may run through a third protein. Some entries that bind do so weakly or less than the wild type. Tags and fused reporters may be left off the sequences shown.

Chains of the proteins cited; added tags and fusions are not shown.
UniProt P55737: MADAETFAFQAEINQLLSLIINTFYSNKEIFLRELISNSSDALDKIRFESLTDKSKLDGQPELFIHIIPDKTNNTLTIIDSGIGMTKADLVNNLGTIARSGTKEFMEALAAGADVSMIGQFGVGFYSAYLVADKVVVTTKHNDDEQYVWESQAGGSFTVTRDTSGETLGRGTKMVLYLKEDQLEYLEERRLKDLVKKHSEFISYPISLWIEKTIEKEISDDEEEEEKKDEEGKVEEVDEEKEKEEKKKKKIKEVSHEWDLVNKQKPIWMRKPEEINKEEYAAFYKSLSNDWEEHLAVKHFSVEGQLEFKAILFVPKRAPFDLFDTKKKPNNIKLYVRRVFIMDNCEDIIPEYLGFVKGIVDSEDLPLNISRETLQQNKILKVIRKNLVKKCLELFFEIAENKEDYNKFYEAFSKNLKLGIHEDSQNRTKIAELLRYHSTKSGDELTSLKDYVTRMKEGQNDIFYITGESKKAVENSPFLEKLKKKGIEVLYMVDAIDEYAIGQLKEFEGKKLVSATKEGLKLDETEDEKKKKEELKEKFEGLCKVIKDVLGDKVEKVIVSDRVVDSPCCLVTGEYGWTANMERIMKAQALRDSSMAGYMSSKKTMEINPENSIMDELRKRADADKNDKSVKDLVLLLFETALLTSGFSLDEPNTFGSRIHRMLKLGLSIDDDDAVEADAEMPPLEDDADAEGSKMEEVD

T1: cYFP-AGO1 (full-length AGO1 fused to the C-terminal half of YFP) (Arabidopsis thaliana) (UniProt O04379)
T1 sequence: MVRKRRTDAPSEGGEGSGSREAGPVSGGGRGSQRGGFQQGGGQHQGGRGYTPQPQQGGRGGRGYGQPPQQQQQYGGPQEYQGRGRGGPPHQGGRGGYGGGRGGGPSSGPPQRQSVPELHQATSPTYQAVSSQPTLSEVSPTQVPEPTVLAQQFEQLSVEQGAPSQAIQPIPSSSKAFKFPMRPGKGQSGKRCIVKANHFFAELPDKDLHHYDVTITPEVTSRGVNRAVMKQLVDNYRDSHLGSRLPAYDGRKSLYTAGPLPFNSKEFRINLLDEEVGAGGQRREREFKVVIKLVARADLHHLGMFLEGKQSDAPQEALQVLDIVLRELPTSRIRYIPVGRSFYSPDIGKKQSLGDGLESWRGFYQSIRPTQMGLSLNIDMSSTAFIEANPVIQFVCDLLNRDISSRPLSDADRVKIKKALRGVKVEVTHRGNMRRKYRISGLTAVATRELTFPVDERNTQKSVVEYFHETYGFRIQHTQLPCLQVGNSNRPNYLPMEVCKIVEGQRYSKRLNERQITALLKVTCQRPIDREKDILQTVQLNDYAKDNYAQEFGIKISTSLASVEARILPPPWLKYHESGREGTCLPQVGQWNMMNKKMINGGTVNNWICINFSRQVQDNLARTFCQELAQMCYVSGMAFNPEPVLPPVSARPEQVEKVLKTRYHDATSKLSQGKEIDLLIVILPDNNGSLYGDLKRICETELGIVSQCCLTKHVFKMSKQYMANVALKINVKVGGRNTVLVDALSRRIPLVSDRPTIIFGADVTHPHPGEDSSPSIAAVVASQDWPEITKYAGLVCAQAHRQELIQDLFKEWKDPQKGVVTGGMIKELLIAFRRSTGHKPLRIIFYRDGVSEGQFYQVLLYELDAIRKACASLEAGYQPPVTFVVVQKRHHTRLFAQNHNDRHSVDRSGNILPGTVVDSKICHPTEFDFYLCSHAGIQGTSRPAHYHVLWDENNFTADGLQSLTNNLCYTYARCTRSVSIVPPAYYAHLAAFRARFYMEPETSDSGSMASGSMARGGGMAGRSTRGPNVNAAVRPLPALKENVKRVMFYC

T2: βNc^AGO1 (N-coil plus connecting β-strands), Gal4-BD fusion (Arabidopsis thaliana) (UniProt O04379)
T2 sequence: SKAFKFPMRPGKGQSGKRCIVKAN

T3: N-coil-Globular N part of arabidopsis AGO1 (NcGN^AGO1), Gal4-BD fusion (Arabidopsis thaliana) (UniProt O04379)
T3 sequence: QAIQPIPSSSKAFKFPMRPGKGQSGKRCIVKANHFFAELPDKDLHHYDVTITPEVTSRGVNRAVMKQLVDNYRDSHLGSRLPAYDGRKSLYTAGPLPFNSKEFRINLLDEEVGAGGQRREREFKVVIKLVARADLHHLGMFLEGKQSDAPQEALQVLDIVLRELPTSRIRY


Legend:
[1] = molecular target: T1, cYFP-AGO1 (full-length AGO1 fused to the C-terminal half of YFP) (Arabidopsis thaliana); experiment: split reporter
[2] = molecular target: T2, βNc^AGO1 (N-coil plus connecting β-strands), Gal4-BD fusion (Arabidopsis thaliana); experiment: two-hybrid
[3] = molecular target: T3, N-coil-Globular N part of arabidopsis AGO1 (NcGN^AGO1), Gal4-BD fusion (Arabidopsis thaliana); experiment: two-hybrid

Molecule	binding [1]	binding [2]	binding [3]
nYFP-Hsp90.2 (from UniProt P55737 1-699)	binds		
ATI1 fused to the Gal4 activation domain (protein, UniProt O82775 1-256) MANNEEHPPRGNEWEVVSLTSSAYAAAPGPYNVESRDVRKYDAYYGAETSRDLYMSEHFVFPPSEHENLPIDESLFVAEQRKDGRDLMLEGQGLSDQFHYEAGNNQQSIYGESALGSSRHMESFGSESAVYEHGLVDAEGNLDLHSDGEGEKDVKKSTHNLPCEAWWKRRAISMYSRTREANAIWSLFFAAAVTGLVVLGQRWQQERWQVLQLKWQSSISSEKLGRVLEPLSRLKDVIVRSNPQASLVRSGSSSEV		no binding	binds
nYFP-ATI1 (protein, UniProt O82775 1-256) MANNEEHPPRGNEWEVVSLTSSAYAAAPGPYNVESRDVRKYDAYYGAETSRDLYMSEHFVFPPSEHENLPIDESLFVAEQRKDGRDLMLEGQGLSDQFHYEAGNNQQSIYGESALGSSRHMESFGSESAVYEHGLVDAEGNLDLHSDGEGEKDVKKSTHNLPCEAWWKRRAISMYSRTREANAIWSLFFAAAVTGLVVLGQRWQQERWQVLQLKWQSSISSEKLGRVLEPLSRLKDVIVRSNPQASLVRSGSSSEV	binds		
nYFP-ATI2 (protein, UniProt Q8VY98 1-266) MADKDEAATRGNDWEVVSLTASAYAAAPGPKPVVDSKDDDHKEVTPCYEAETSHPLYMSRHFVFPPTGQLENTSDLTEASLTGSHCKEGSDLSLKGLDLSDDFGGLEFSEDKGKKEENIYTTAMSSLDDERAIGGSHVYEPVEEPTEPVSPSDVTLDLNPIKDDEVANSPPSEEAWWKRSVASLIAQAKETNTVWSICIAAAVMGIVILGQHWQQERWQILQQKWESSIGNEKAGRLMGPISRLKQAFVGGQRRDSFIRASAQNDR	binds		
nYFP-ATI2^Δ119-193 (protein, UniProt Q8VY98) MADKDEAATRGNDWEVVSLTASAYAAAPGPKPVVDSKDDDHKEVTPCYEAETSHPLYMSRHFVFPPTGQLENTSDLTEASLTGSHCKEGSDLSLKGLDLSDDFGGLEFSEDKGKKEENVWSICIAAAVMGIVILGQHWQQERWQILQQKWESSIGNEKAGRLMGPISRLKQAFVGGQRRDSFIRASAQNDR	no binding		
